Data reported in patent US5013722A, “Cholecystokinin analogs for controlling appetite” (Hoffmann-LaRoche Inc., priority 1989, dated 1991).
For at least one compound, name, drawing or mass did not settle the structure. Where a SMILES comes first, the peptide text is derived from it. [ ]: non-standard residue; d: D form. The star is where a group is joined. Thr(SO3H) = C[C@@H](OS(=O)(=O)O)[C@H](N)C(=O)O; sY = N[C@@H](Cc1ccc(OS(=O)(=O)O)cc1)C(=O)O; N(CH2CH2NHAc)Gly = CC(=O)NCCNCC(=O)O; NMeF = CN[C@@H](Cc1ccccc1)C(=O)O; For = O=C*

Columns and labels:
[1] = molecular target: T1, receptors in rat pancreas (3H-CCK-8-(SO3 H) binding) (Rattus norvegicus, UniProt P30551); experiment: In vitro receptor binding assay, rat pancreas homogenate, 3H-CCK-8-(SO3H) radioligand; details: 0.15 nM radioligand, 30 min, 25° C.; read-out: Rat Pancreas IC50 (inhibition of specific 3H-CCK-8-(SO3H) binding)
T1 construct: receptors in homogenized preparations of rat pancreatic cells and bovine striata; from tissue; host or cells: rat pancreas homogenate (48,000 x g pellet)
T1 sequence (P30551 1-444): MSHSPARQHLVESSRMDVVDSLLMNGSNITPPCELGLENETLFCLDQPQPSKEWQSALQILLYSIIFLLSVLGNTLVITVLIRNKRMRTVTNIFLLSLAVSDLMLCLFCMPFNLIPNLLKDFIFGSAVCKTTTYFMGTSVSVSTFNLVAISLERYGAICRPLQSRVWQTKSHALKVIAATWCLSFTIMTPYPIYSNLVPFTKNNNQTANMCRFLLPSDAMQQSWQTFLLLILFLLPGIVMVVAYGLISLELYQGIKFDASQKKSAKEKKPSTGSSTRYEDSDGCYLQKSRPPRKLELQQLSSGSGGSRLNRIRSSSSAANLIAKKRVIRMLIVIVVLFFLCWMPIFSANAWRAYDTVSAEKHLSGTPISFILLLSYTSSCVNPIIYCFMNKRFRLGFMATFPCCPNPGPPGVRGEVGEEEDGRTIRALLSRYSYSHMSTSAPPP
Protocol: This strategy was utilized to minimize central nervous system side effects by identifying peptides with peripheral receptor selectivity. […] The tissue was homogenized 2 x for approx. 15 sec. at 0° C. using a Polytron homogenizer at a setting of 6. The tissue was isolated by centrifugation at 48,000 x g for 10 min. at 0° C. […] Samples were incubated for 30 min. at 25° C. and the incubation terminated by pouring the mixture onto a pre-wet Whatman GF/B filter on a Sandbeck Vacuum Filtration Manifold. The incubation tubes were washed with 2×3 ml of ice-cold HEPES Buffer #2 and the wash filtered through the GF/B filter. The filter was air dried for 10 min. and then placed in a scintillation vial with 12 ml of Beckman HP/b Ready-Solv scintillation cocktail. The vials were shaken for 2 hours and then counted using a Beckman Model 7800 liquid scintillation spectrometer.

[2] = molecular target: T2, receptors in bovine striatum (3H-CCK-8-(SO3 H) binding, central receptor) (Bos taurus, UniProt P79266); experiment: In vitro receptor binding assay, bovine striatum homogenate, 3H-CCK-8-(SO3H) radioligand; details: 0.15 nM radioligand, 30 min, 25° C.; read-out: Bovine Striatum IC50 (inhibition of specific 3H-CCK-8-(SO3H) binding)
T2 construct: receptors in homogenized preparations of rat pancreatic cells and bovine striata; from tissue; host or cells: bovine striatum homogenate (48,000 x g pellet)
T2 sequence (P79266 1-454): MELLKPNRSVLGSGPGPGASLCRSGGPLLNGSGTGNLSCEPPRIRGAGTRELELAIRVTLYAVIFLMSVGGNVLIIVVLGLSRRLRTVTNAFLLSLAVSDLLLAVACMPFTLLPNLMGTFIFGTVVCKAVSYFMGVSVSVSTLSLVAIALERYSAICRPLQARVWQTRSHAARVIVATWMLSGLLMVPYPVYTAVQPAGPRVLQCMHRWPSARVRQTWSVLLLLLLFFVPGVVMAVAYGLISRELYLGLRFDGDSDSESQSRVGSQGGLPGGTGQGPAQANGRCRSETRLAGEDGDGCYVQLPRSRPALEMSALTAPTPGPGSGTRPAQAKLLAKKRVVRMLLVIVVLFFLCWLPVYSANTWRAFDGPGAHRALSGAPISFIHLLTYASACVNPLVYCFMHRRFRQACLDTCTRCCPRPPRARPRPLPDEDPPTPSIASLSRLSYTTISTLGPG

CSCC[C@H](NC(=O)[C@H](Cc1ccc(OS(=O)(=O)O)cc1)NC(=O)CNCCNC(C)=O)C(=O)NCC(=O)N[C@@H](Cc1cn(C=O)c2ccccc12)C(=O)N[C@@H](CCSC)C(=O)N[C@H](C(=O)N(C)[C@@H](Cc1ccccc1)C(N)=O)[C@@H](C)OS(=O)(=O)O [Example 7, Ac-Aeg-Tyr(SO3 H)-Met-Gly-Trp(For)-Met-Thr(SO3 H)-N-methyl-Phe-NH2] (H-[N(CH2CH2NHAc)Gly][sY]MGW(For)M[Thr(SO3H)][NMeF]-NH2)
IC50 [1]: 14.5 nM
IC50 [2]: 1000 nM
